Assay results: publication PMC4890047
These are yes or no findings as the source states them, for the method shown. In cells and extracts the contact can be indirect. Some results given as binding are weak or reduced against the parent protein; the word gives no strength. Where a sequence is shown, tags or fusion partners need not be part of it.

Sequences of proteins named here, by UniProt entry; tags and fusion partners are left off.
UniProt Q8B6J8: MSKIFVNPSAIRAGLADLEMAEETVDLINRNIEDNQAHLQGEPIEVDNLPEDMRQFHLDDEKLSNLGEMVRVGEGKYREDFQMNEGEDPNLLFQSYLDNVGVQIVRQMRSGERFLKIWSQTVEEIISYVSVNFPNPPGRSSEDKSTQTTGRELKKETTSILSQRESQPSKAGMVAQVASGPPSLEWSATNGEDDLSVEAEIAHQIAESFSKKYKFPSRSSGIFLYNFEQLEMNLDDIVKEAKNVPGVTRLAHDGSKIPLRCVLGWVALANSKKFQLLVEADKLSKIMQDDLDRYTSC

Target: T1, Flag-Cdc37 (WT) (mouse) (UniProt Q61081)
T1 sequence: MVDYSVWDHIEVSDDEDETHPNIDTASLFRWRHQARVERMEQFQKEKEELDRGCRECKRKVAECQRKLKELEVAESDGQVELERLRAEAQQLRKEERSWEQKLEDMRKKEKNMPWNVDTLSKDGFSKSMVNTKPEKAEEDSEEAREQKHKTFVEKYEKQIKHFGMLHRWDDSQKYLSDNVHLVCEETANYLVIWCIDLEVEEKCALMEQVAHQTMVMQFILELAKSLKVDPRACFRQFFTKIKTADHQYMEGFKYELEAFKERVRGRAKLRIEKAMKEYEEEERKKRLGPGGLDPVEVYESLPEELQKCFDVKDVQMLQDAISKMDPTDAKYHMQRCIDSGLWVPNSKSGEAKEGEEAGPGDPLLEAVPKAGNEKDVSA
Assay: co-IP

With Myc-P (from UniProt Q8B6J8 1-297) the binding was “binds”.
